This assay in a line: qHTS Assay for Lipid Storage Modulators in Drosophila S3 Cells.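 As to cell number change: cells counted by Cell Tracker Red CMTPX staining in the red channel.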 To be noted: BODIPY lipid droplet fluorescence, 18-24 h; for cell number change: measured here: cell count max response, cells fed with added oleic acid. In outline: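 Drosophila S3 cells loaded with oleic acid (400 uM, as added) and compounds at several concentrations; lipid droplets imaged by 488-nm laser-scanning cytometry, 500–530 nm intensity and object ratio to cell channel. Percent activity normalized to 20 uM Triacsin C.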
In general terms: In qHTS, concentration-response curves come from the screen itself.

The mark [1] stands for this setting: measured here: lipid fluorescence (Fed channel) AC50, cells fed with added oleic acid.
[2] abbreviates: measured here: cell number channel AC50, cells fed with added oleic acid.

The list shows a part of the results. Further columns of the screen follow, without active or inactive calls. Most of these compounds were active or inconclusive in the main read-out, so they are no random draw. Words in brackets tell the shape of the fitted curve; partial curves, single points and poor fits give uncertain potencies.

Regarding `COc1ccccc1-c1ccc(=O)n(CC(=O)NCc2cccs2)n1`, the cell number change was -43.7%.
Turning to `Cc1nc(N2CCN(c3ccccn3)CC2)c2c(C)c(C(=O)N3CCN(c4ccc(F)cc4)CC3)sc2n1`, the cell number change came to 5.13%.
For the molecule `COc1ccc(-n2ccnc2SCC(=O)NC2CCCC2)c(OC)c1`, the cell number change was found to be 18.8%. Also, the AC50 (as a rule, the concentration giving half of the maximal activity seen) under setting [1] is 5.17 µM [rising, single point].
With `COc1ccc(/C=N/OCC(=O)OCC(=O)N(C)c2ccccc2)cc1`, the cell number change turned out to be 3.2%. The AC50 under setting [1] was 0.00461 µM [rising, full curve, poor fit].
As to `O=C(NCC(=O)N1CCN(c2ccccc2)CC1)c1ccc(Br)o1`, the cell number change was -12.5%. Also, the AC50 under setting [1] is 29.1 µM [rising, single point].
As to `CC(=O)CC(=O)Nc1cccc2c1CCCC2`, the AC50 under setting [1] is 0.116 µM [falling, single point].
As for `O=C(CSc1nc(=O)n2ccccc2n1)NCCc1ccccc1`, the cell number change stood at 22.1%.
Take `Cc1ccc(Cl)cc1NC(=O)COC(=O)c1ccccc1O`: the cell number change was -15.6%. For the same molecule, the AC50 under setting [1] is 29.1 µM [falling, single point].
As to `CC(Sc1nnc(Cc2cccs2)n1C1CCCCC1)C(N)=O` (centres undefined), the cell number change came out at 47.8%. Moreover, the AC50 under setting [2] is 29.1 µM [rising, single point]. Besides, under setting [1], the AC50 is 2.06 µM [falling, partial curve].
For the molecule `COC(=O)c1c(C)nc(C)c2c(=O)oc3ccccc3c12`, the cell number change is -18.4%. Under setting [1], the AC50 was 6.51 µM [falling, single point].
As for `O=C(NCCCN1CCOCC1)C1CCN(S(=O)(=O)c2c(Cl)cccc2Cl)CC1`, the cell number change came to 2.97%. Besides, the AC50 under setting [2] was 3.66 µM [rising, single point]. The AC50 under setting [1] is 6.51 µM [rising, single point].
Take `O=C(CN1CCN(c2ccc(F)cc2)CC1)OCc1ccccc1`: the AC50 under setting [1] was 0.092 µM [falling, full curve, poor fit].
For `Nc1nnc(-c2ccccc2)s1`, the cell number change amounted to 4.42%. The AC50 under setting [2] was 0.13 µM [falling, full curve, poor fit].
For the molecule `CN(CC(=O)Nc1cccc(F)c1)C(=O)/C=C/c1ccc2ccccc2n1`, the cell number change was -2.79%.
As for `COC(=O)c1ccccc1NC(=O)CN1CCCCC1`, the cell number change is -45.8%. Also, under setting [2], the concentration at half-maximal activity (AC50) is 20.6 µM [falling, single point].
As to `COc1cccc(-c2nnc(SCC(=O)N3CCCC3=O)n2-c2ccccc2)c1`, the cell number change was -7.84%. The AC50 under setting [2] was 6.51 µM [rising, single point].
Take `O=C(NCCC1CCCCN1S(=O)(=O)c1cccs1)C(=O)Nc1ccc(F)cc1F` (centres undefined): the cell number change was -23.1%. Moreover, the AC50 under setting [1] was 1.84 µM [falling, partial curve, poor fit].
Regarding `CC(C)OCCCNC(=O)c1cccs1`, the cell number change is -31.4%. The AC50 under setting [2] is 18.4 µM [falling, single point]. Moreover, under setting [1], the AC50 was 8.2 µM [falling, partial curve].
In the case of `COc1ccc(S(=O)(=O)N2CCOCC2)cc1NC(=O)C1CCCN1C(=O)c1cccs1` (centres undefined), the cell number change is -7.72%. Also, the AC50 under setting [1] is 6.51 µM [rising, single point].
On to `CCN(CC(=O)Nc1ccccc1C(F)(F)F)CC(=O)NC1CC1`, for which the cell number change is -32.3%. Also, the AC50 under setting [2] was 2.91 µM [falling, full curve]. Moreover, the AC50 under setting [1] is 9.2 µM [rising, partial curve].
On to `CCCn1cc(CN2CCC(Oc3ccc(C(=O)N4CCCC4)cc3)CC2)c(C)n1`, for which the cell number change was determined as 3.77%.
For `CO/N=C(\CCC(=O)O)c1cccs1`, the cell number change was -2.03%. For the same molecule, under setting [2], the AC50 is 5.8 µM [falling, single point].
Regarding `Cc1ccc(S(=O)(=O)Cn2nnnc2C(c2ccccn2)N2CCN(c3ccccc3)CC2)cc1` (centres undefined), the cell number change is 25.7%. Besides, under setting [2], the AC50 was 0.517 µM [rising, single point].
Consider `CC(=O)Nc1cccc(-c2cc(-c3c(Cl)cccc3Cl)no2)c1`, for which the cell number change came out at 15.1%. Besides, under setting [1], the AC50 was 0.0651 µM [rising, partial curve, poor fit].
Consider `CCOC(=O)c1c(C)oc2c1c(C=NCCO)c(O)c1ccccc12`, for which the cell number change is 14.9%.
On the same count and under the same terms, the value for `CCN1CCN(CCCNC(=O)CNC(=O)c2nn(-c3ccc(OC)cc3)c(=O)c3ccccc23)CC1` was 13.1%.
Consider `CCOc1cccc2sc(N(CCCN(C)C)C(=O)c3ccc(S(=O)(=O)N4CCc5ccccc5C4)cc3)nc12`, for which the cell number change turned out to be 30.2%. Moreover, the concentration at half-maximal activity (AC50) under setting [2] was 2.59 µM [rising, full curve, poor fit]. Besides, under setting [1], the AC50 was 6.51 µM [rising, single point].
`O=C(NC1CCCCCCC1)c1cccc(Cl)c1`: the cell number change was 18.7%. Besides, under setting [1], the AC50 was 0.259 µM [rising, full curve, poor fit].
In the case of `Fc1ccccc1N1CCN(CC2CC3C=CC2C3)CC1` (centres undefined), the cell number change is -17.6%. For the same molecule, the half-maximal activity concentration (AC50) under setting [1] is 0.731 µM [falling, single point].
As to `c1ccc(CC2CCN(c3nc4ccccc4n4nnnc34)CC2)cc1`, the AC50 under setting [2] was 2.06 µM [rising, partial curve].
As for `Cc1cccc(-n2c(N)cc(=O)nc2SCC(=O)Nc2ccccc2)c1`, the cell number change was 40.3%. Also, the AC50 under setting [2] is 29.1 µM [rising, single point]. Further, the AC50 under setting [1] was 23.1 µM [rising, single point].
On to `CCOc1ccc(Nc2nc(N(C)c3ccccc3)nc(N)c2[N+](=O)[O-])cc1`, for which the cell number change is 6.85%. Under setting [1], the AC50 is 1.64 µM [falling, partial curve, poor fit].
As for `CCOc1ncccc1C(=O)OCC(=O)Nc1cc(S(=O)(=O)N2CCOCC2)ccc1C`, the cell number change came out at 64.6%. The AC50 under setting [2] was 29.1 µM [rising, single point]. Further, the AC50 under setting [1] is 1.84 µM [falling, single point].
As for `CCN(CC)C(=O)CN(c1ccc2c(c1)OCO2)S(C)(=O)=O`, the cell number change is -52.5%. In addition, under setting [2], the AC50 is 29.1 µM [falling, single point].
For `O=C(Nc1ccncc1)C1(c2ccccc2)CCCC1`, the cell number change was determined as 74.7%. Also, the AC50 under setting [2] was 16.4 µM [rising, partial curve, poor fit].
With `Cc1ccc(-c2nc3ccc(NS(=O)(=O)c4ccccc4)cc3[nH]2)o1`, the AC50 by setting is: under setting [2], 0.058 µM [rising, full curve, poor fit]; under setting [1], 6.51 µM [rising, partial curve, poor fit].
As to `CN1CCN(C(CNC(=O)C(=O)Nc2ccc3c(c2)OCCO3)c2ccc(F)cc2)CC1` (centres undefined), the cell number change is -0.98%. The concentration at half-maximal activity (AC50) under setting [2] is 1.84 µM [falling, partial curve]. Moreover, the AC50 under setting [1] is 0.206 µM [falling, full curve, poor fit].
Take `CCCC(=O)NCC(c1cccs1)S(=O)(=O)c1ccc(C)cc1` (centres undefined): the cell number change came out at 5.81%. In addition, the AC50 under setting [1] was 4.11 µM [rising, full curve, poor fit].
`O=C1NC(=S)N/C1=C/c1cccn1-c1ccc([N+](=O)[O-])cc1`: the cell number change was 41.9%.
Consider `Cc1ccc(NC(=S)Nc2cccc(S(=O)(=O)Nc3c(C)n(C)n(-c4ccccc4)c3=O)c2)cc1`, for which the cell number change came out at 37.7%.
As for `CN(C[C@@H](CC1CCCCC1)N(C[C@H](Cc1ccccc1)N(CCc1ccccc1)N=O)N=O)N=O`, the cell number change turned out to be 11.9%. The AC50 under setting [1] was 29.1 µM [rising, single point].
On to `CC(C)(C)N1CC(C(=O)Nc2ccc(S(N)(=O)=O)cc2)CC1=O` (centres undefined), for which the cell number change was -0.787%. The AC50 under setting [2] was 0.731 µM [falling, single point].
`Cc1ccc(-n2c(SCC(=O)N3CC(=O)Nc4ccccc43)nc3ccccc3c2=O)cc1`: the cell number change was -14.1%. Moreover, under setting [1], the AC50 is 7.31 µM [falling, partial curve].
Consider `CN(c1ccccc1)S(=O)(=O)c1ccc(NC(=O)c2ccccc2)cc1`, for which the cell number change was determined as 30.1%. In addition, the AC50 under setting [2] was 9.2 µM [rising, single point]. For the same molecule, the AC50 under setting [1] was 8.2 µM [rising, partial curve, poor fit].
Turning to `Cc1cccc(COC(=O)C(Cc2ccccc2)NC(N)=O)c1` (centres undefined), the cell number change came out at 6.96%. For the same molecule, under setting [1], the AC50 is 6.51 µM [rising, single point].
Take `O=C(NC1c2ccccc2-c2ccccc21)c1ccccc1`: the cell number change was -4.38%.
Same read-out and setting: for `O=C(Cc1cccs1)N(Cc1ccco1)C1(C(=O)NC2CCCCC2)CCCCC1` the value was 3.42%.
Take `O=[N+]([O-])c1cccc(S(=O)(=O)NCc2ccncc2)c1`: under setting [1], the AC50 was 2.31 µM [falling, partial curve].
Consider `COc1ccc(C)cc1S(=O)(=O)N(CC(=O)Nc1ccc2c(c1)OCCO2)Cc1ccccc1`, for which the cell number change came to 71.6%. Under setting [2], the AC50 was 2.06 µM [rising, full curve]. Besides, under setting [1], the AC50 was 9.2 µM [rising, partial curve].
In the case of `Cc1cc(N2CCN(C)CC2)nc(N2CCOCC2)n1`, the cell number change is -119%. Besides, the AC50 under setting [2] was 25.9 µM [falling, partial curve, poor fit]. The AC50 under setting [1] was 16.4 µM [falling, partial curve].
Turning to `CS(=O)(=O)N(Cc1ccccc1)c1ccc(C(=O)NCC2CCCO2)cc1` (centres undefined), the cell number change worked out at 30.4%.
Same read-out and setting: for `O=C(c1ccccc1)c1ccc(N2CCN(C(=O)c3cccc(F)c3F)CC2)c(F)c1` the value was -24.6%.
`O=C1CC(N2CCN(S(=O)(=O)c3ccc([N+](=O)[O-])cc3)CC2)C(=O)N1c1ccccc1F` (centres undefined): the cell number change is -29.7%. For the same molecule, the concentration at half-maximal activity (AC50) under setting [1] was 29.1 µM [falling, single point].
As for `O=C(COC(=O)C12CC3CC(CC(C3)C1)C2)Nc1ccccc1F`, the cell number change is -32%. Moreover, the AC50 under setting [2] is 20.6 µM [falling, partial curve, poor fit]. Further, under setting [1], the AC50 was 36.6 µM [falling, partial curve, poor fit].
Regarding `CCc1nnc(NC(=O)c2cccc(S(=O)(=O)N(C)c3ccccc3)c2)s1`, the cell number change came out at 43.5%. Further, the concentration at half-maximal activity (AC50) under setting [2] is 3.26 µM [rising, full curve].
Regarding `Cc1cccc(NC(=S)N/N=C/C(C)c2ccccc2)c1C` (centres undefined), the cell number change is -48.1%.
Still for that read-out and setting: for `O=C(O)CCC(=O)N1CCN(c2nc3ccccc3s2)CC1` the value was -2.37%.
Take `CCCN(CC(=O)Nc1ccccc1OC)C(=O)CCC(=O)c1ccc(F)cc1`: under setting [1], the AC50 is 29.1 µM [falling, single point].
Regarding `CC(=O)Nc1cccc(NC(=O)CSc2ncc(C(=O)Nc3ccccc3)c(=O)n2C)c1`, the cell number change was -75%. Besides, the AC50 under setting [2] is 14.6 µM [falling, partial curve]. In addition, under setting [1], the AC50 is 20.6 µM [falling, partial curve].
For the molecule `CCCS(=O)(=O)N1CCCC(C(=O)N2CCOCC2)C1` (centres undefined), the cell number change stood at 1.15%.
`O=C(Nc1ccc(F)cc1)Nc1ccccc1N1CCCCC1`: the cell number change is -14.9%. The AC50 under setting [1] is 20.6 µM [falling, single point].

The values above are taken from PubChem BioAssay AID2685 (National Center for Advancing Translational Sciences (NCATS), 2010).
